Among the data in the supplement of paper PMC9877034 are cFRET/donor change values, retold here.

Structures can show the parent of a compound that is named as a salt. In all, about 1,000 compounds were measured (“cFRET/donor change relative to DMSO, normalised to beta-lapachone positive control (supercomplex I-IV assembly)”: median about 0.18, lowest 2% from about -1 on). This is one part of the list.

The subject of this assay is C2C12 (NDUFB8-AcGFP / COX8A-DsRed-Monomer FRET reporter). In words: cFRET/donor change relative to DMSO, normalised to beta-lapachone positive control (supercomplex I-IV assembly) (fraction of beta-lapachone effect); higher = more respiratory supercomplex assembly. The settings on record: 40 µM; 24 h. The protocol: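 Cells were treated with 40 uM compound for 24 h and imaged on an IN Cell Analyzer 6000. Corrected FRET was divided by donor signal (cFRET/donor) and measured in two replicate experiments. The score is (mean cFRET/donor of compound - mean DMSO) / (mean beta-lapachone 40 uM - mean DMSO). Compounds flagged for prominent cell death, abnormal morphology or decreased cell number were excluded.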
Compound `CCN1C[C@]2(COC)[C@H](O)C[C@H](OC)[C@@]34[C@@H]5C[C@@]6(O)[C@H](OC(=O)c7ccccc7)[C@@H]5[C@@](OC(C)=O)([C@@H]([C@H](OC)[C@H]23)[C@@H]14)[C@@H](O)[C@@H]6OC` [Aconitine] yielded a cFRET/donor change of 0.141. `CNc1ccc2oc(C[C@H]3O[C@@]4(CC[C@H]3C)O[C@H]([C@H](C)C(=O)c3ccc[nH]3)[C@H](C)C[C@H]4C)nc2c1C(=O)O` [Calcimycin] returned a cFRET/donor change of 0.519. Then `c1ccc2c(c1)[I+]c1ccccc1-2` [Diphenyleneiodonium chloride], with 1.64; and `CC(N)Cc1cccc(C(F)(F)F)c1` (single isomer, unassigned; (+)) [(+)-Norfenfluramine hydrochloride], with 0.526. Then `N#CCCN` [3-Aminopropionitrile fumarate], with -0.197; and `Oc1ccc2c3c1O[C@H]1c4oc5ccccc5c4C[C@@]4(O)[C@@H](C2)N(CC2CC2)CC[C@]314` [Naltriben methanesulfonate], with 0.549. Then `NC(=O)CN1CCCC1=O` [Piracetam], with 0.148.

The compound `NCc1cc(O)no1` [Muscimol hydrobromide] gave a cFRET/donor change of 0.157. As to `CC(=O)NBr` [N-Bromoacetamide], the cFRET/donor change came out at 0.0538. In turn, `Cc1c2ccncc2c(C)c2c1[nH]c1ccccc12` [Ellipticine] gave a cFRET/donor change of -2.44. The figure for `CC(C)NP(=O)(NC(C)C)OP(=O)(NC(C)C)NC(C)C` [Tetraisopropyl pyrophosphoramide] is -0.147; for `NCCc1c[nH]c2ccccc12` [Tryptamine hydrochloride] it is -0.111. For `Clc1ccc(N2C[C@H]3CC[C@@H](C2)N3)nn1`, the cFRET/donor change is 0.151. Compound `Cc1ccc(S(=O)(=O)N[C@@H](CCCCN)C(=O)CCl)cc1` [Na-p-Tosyl-L-lysine chloromethyl ketone hydrochloride] showed a cFRET/donor change of 0.485. Then `CCCN1CCC[C@@H](c2cccc(O)c2)C1` [S(-)-3PPP hydrochloride], with 0.226; and `CCNC(=O)[C@H]1O[C@@H](n2cnc3c(N)ncnc32)[C@H](O)[C@@H]1O` [5'-N-Ethylcarboxamidoadenosine], with 0.316; and `Cc1cccc(C)c1NC1=NCCCS1` [Xylazine hydrochloride], with 0.359. The figure for `COc1cc([C@@H]2c3cc4c(cc3[C@H](O)[C@H]3COC(=O)[C@H]23)OCO4)cc(OC)c1OC` [Podophyllotoxin] is 0.293; for `CC[C@H]1CN2CCc3cc(OC)c(OC)cc3[C@@H]2C[C@@H]1C[C@H]1NCCc2cc(OC)c(OC)cc21` [Emetine dihydrochloride hydrate] it is 0.344.

In the case of `CS(=N)(=O)CC[C@H](N)C(=O)O` (stereo partly drawn) [L-Methionine sulfoximine], the cFRET/donor change is 0.00629.

For the compound `Ic1ccccc1CNC1C2CCN(CC2)C1C(c1ccccc1)c1ccccc1` [L-703,606 oxalate salt hydrate], the cFRET/donor change worked out at 0.361. Then `CCCN(CCC)CCc1ccc(O)c(O)c1` [Dipropyldopamine hydrobromide], with 0.341.

With `NCCc1c[nH]c2ccc(O)cc12` [Serotonin hydrochloride], the cFRET/donor change is -0.0728.

Consider `C[C@@]12N[C@@H](Cc3ccccc31)c1ccccc12` [(-)-MK-801 hydrogen maleate], for which the cFRET/donor change was -0.159. The figure for `C#CCN[C@H](C)Cc1ccccc1` [R-(-)-Desmethyldeprenyl hydrochloride] is -0.331; for `CCCN(CCC)[C@@H]1CCc2cccc(O)c2C1` [R-(+)-8-Hydroxy-DPAT hydrobromide] it is 0.296; for `CCCN1CCc2cc(O)cc3c2[C@H]1Cc1ccc(O)c(O)c1-3` [R(-)-2,10,11-Trihydroxy-N-propylnoraporphine hydrobromide] it is 0.899. Then `CC1(C(=O)O)C2CCC(O2)C1(C)C(=O)O` (centres undefined) [Cantharidic Acid], with -0.0828; and `CC(C)(C)NCC(O)c1ccccc1Cl` (centres undefined) [Tulobuterol hydrochloride], with 0.316; and `C#CCOC(=O)C1=CCCN(C)C1` [Arecaidine propargyl ester hydrobromide], with 0.0559.

`CN1[C@@H]2CC[C@H]1C[C@@H](OC(=O)C(CO)c1ccccc1)C2` (some centres undefined) [Atropine sulfate] returned a cFRET/donor change of 0.0958.

The compound `c1ccc(CCCN2CCN(CCOC(c3ccccc3)c3ccccc3)CC2)cc1` showed a cFRET/donor change of 1.23.

With `COc1cc(C(O)CN)ccc1O` (racemic) [(±)-Normetanephrine hydrochloride], the cFRET/donor change amounted to 0.233. Then `CN1[C@@H]2CC[C@H]1C[C@@H](OC(c1ccccc1)c1ccccc1N)C2` (some centres undefined) [Aminobenztropine], with 0.541. The figure for `NCC(CP(=O)(O)O)c1ccc(Cl)cc1` (centres undefined) [Phaclofen] is -0.117; for `COc1ccc(C(CN(C)C)C2(O)CCCCC2)cc1` (centres undefined) [Venlafaxine hydrochloride] it is 0.377. Then `CN(C)C(=O)Oc1cccc([N+](C)(C)C)c1` [Neostigmine bromide], with 0.0153; and `CNC(=O)Oc1ccc2c(c1)[C@]1(C)CCN(C)[C@@H]1N2C` [(-)-Physostigmine], with 0.0769; and `CC(N)c1cccc(Cl)c1Cl` (racemic) [(±)-2,3-Dichloro-alpha-methylbenzylamine hydrochloride], with 0.216. Consider `CC(=O)NCCc1c[nH]c2ccccc12` [N-Acetyltryptamine], for which the cFRET/donor change was -0.0443. Then `Cc1cc2c(C(C)C)c(O)c(O)c(C=O)c2c(O)c1-c1c(C)cc2c(C(C)C)c(O)c(O)c(C=O)c2c1O` [Gossypol], with 1.33; and `C=CCN1CC[C@]23CCCC[C@H]2[C@H]1Cc1ccc(O)cc13` [Levallorphan tartrate], with 0.171; and `O=c1ccc2[nH]cc(C3=CCNCC3)c2[nH]1`, with 1.34. Then `CN(C)C(=O)Oc1ccc[n+](C)c1` [Pyridostigmine bromide], with 0.227; and `CN1[C@@H]2C[C@@H](OC(=O)[C@H](CO)c3ccccc3)C[C@H]1[C@H](O)C2` (racemic) [(+/-)-Anisodamine], with 0.269. Then `Clc1ccc(N2CCN(Cc3c[nH]c4ncccc34)CC2)cc1` [L-745,870 hydrochloride], with 0.227. `CCn1cnc2c(Nc3cccc(Cl)c3)nc(N[C@@H]3CCCC[C@@H]3N)nc21` came in with a cFRET/donor change of 0.598.

Consider `NCCCNCCSP(=O)(O)O` [Amifostine], for which the cFRET/donor change was 0.219. `NCCc1c[nH]c2ccc(C(N)=O)cc12` [5-Carboxamidotryptamine maleate] displayed a cFRET/donor change of 0.495.

For `CCCC[N+]1(C)[C@@H]2C[C@@H](OC(=O)[C@H](CO)c3ccccc3)C[C@H]1[C@@H]1O[C@@H]12` (single isomer, unassigned; (-)) [(-)-Scopolamine,n-Butyl-, bromide], the cFRET/donor change worked out at 0.541.

On to `c1ccc2sc(C3(N4CCCCC4)CCCCC3)cc2c1` [BTCP hydrochloride], for which the cFRET/donor change is 0.252. The figure for `C[N+]1(C)C2CCC1CC(OC(=O)c1c[nH]c3ccccc13)C2` (centres undefined) [3-Tropanylindole-3-carboxylate methiodide] is -0.326; for `N#C/C(=C\c1ccc(O)c(O)c1)C(N)=S` [Tyrphostin 47] it is -0.506.

In turn, `COc1ccc(OC)c(C(O)C(C)N)c1` (centres undefined) [Methoxamine hydrochloride] yielded a cFRET/donor change of 0.714. The figure for `C[C@@]12C(=O)OC(=O)[C@]1(C)[C@H]1CC[C@@H]2O1` [Cantharidin] is -0.151; for `NC1CCc2cc(O)c(O)cc2C1` (centres undefined) [6,7-ADTN hydrobromide] it is 0.283; for `NC(CP(=O)(O)O)C(=O)O` (racemic) [(±)-2-Amino-3-phosphonopropionic acid] it is 0.482. Then `COc1ccc2c(c1OC)C(=O)OC2C1c2cc3c(cc2CCN1C)OCO3` (single isomer, unassigned; (+)) [(+)-Hydrastine], with 0.0426; and `O=C1C=CC(=O)C=C1` [p-Benzoquinone], with 0.485; and `CC1=NN=C(c2ccc(N)cc2)c2cc3c(cc2C1)OCO3`, with 0.287.

As to `CC(=O)c1c(O)c(C)c(O)c(Cc2c(O)c3c(c(C(=O)/C=C/c4ccccc4)c2O)OC(C)(C)C=C3)c1O` [Rottlerin], the cFRET/donor change is -0.348. As to `COc1ccccc1N1CCNCC1` [1-(2-Methoxyphenyl)piperazine hydrochloride], the cFRET/donor change was -0.283. Then `C[C@@H]1O[C@@H](O[C@H]2C[C@@H](O)[C@]3(CO)[C@H]4[C@H](O)C[C@]5(C)[C@@H]([C@@H]6COC(=O)C6)CC[C@]5(O)[C@@H]4CC[C@]3(O)C2)[C@H](O)[C@H](O)[C@H]1O` [Dihydroouabain], with 0.51; and `CC(=O)OCC1=C(C(=O)[O-])N2C(=O)[C@@H](NC(=O)CCC[C@@H](N)C(=O)[O-])[C@H]2SC1.[Zn+2]` [Cephalosporin C zinc salt], with 0.245; and `CN1C(=O)CCS(=O)(=O)C1c1ccc(Cl)cc1` (centres undefined) [Chlormezanone], with 0.213. The figure for `O=P1(N(CCCl)CCCl)NCCCO1` (centres undefined) [Cyclophosphamide monohydrate] is 0.0561; for `O=C(O)Cc1cnc[nH]1` [Imidazole-4-acetic acid hydrochloride] it is 0.0409.

In the case of `O=C(O)[C@@H]1CCN1` [L-azetidine-2-carboxylic acid], the cFRET/donor change was found to be 0.0533. The figure for `Cc1cc([C@@H]2CCCN2C)on1` [ABT-418 hydrochloride] is 0.00506. Then `COc1cc2c(c(OC)c1OC)-c1ccc(OC)c(=O)cc1[C@@H](NC(C)=O)CC2` [Colchicine], with 0.534. `CC[C@@H](CO)NC(=O)[C@@H]1C=C2c3cccc4c3c(cn4C)C[C@H]2N(C)C1` [Methysergide maleate] returned a cFRET/donor change of 0.494. The figure for `CC(C)C1CNC(C(=O)O)C1CC(=O)O` (centres undefined) [Dihydrokainic acid] is 0.519; for `C[C@]12CC[C@@H](O)C[C@@H]1CC[C@@H]1[C@@H]2CC[C@]2(C)[C@@H](C(=O)CO)CC[C@@H]12` [3-alpha,21-Dihydroxy-5-alpha-pregnan-20-one] it is 0.00272; for `CCCN(CCC)C1CCc2cccc(O)c2C1` (racemic) [(±)-8-Hydroxy-DPAT hydrobromide] it is 0.0524.
